The values below come from PMC7528131.

Protein sequences, listed by entry. Tags and fused reporters are not part of them. Residues count along the entry.
UniProt P58390, residues 266-839: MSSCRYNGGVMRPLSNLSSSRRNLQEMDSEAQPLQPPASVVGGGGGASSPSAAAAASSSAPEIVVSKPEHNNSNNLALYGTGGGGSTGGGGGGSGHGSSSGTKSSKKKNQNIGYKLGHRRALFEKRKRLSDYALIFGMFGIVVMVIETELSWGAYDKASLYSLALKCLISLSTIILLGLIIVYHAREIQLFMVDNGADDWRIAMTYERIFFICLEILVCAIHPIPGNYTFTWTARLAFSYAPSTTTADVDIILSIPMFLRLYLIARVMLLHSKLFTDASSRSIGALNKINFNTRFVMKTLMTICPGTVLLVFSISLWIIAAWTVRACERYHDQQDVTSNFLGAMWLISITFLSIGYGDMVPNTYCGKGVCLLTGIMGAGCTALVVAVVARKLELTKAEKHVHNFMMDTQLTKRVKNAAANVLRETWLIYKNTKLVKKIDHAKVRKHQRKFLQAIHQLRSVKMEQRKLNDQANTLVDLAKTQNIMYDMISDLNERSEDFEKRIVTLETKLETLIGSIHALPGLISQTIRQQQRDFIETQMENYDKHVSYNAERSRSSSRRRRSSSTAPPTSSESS

For this assay, the target named is small-conductance calcium-activated potassium channel subtype 2 (SK2) (mouse (endogenous in spinal cord)) (UniProt P58390). Put plainly: co-IP; mouse spinal cord lysate supernatant incubated with anti-SK2 for 30 min, then protein A/G agarose beads overnight at 4°C; beads rinsed three times; eluate blotted with anti-MPP2; IgG as control.

Results are given in words; binding and its absence hold for the method and conditions named. In cells and extracts the contact can be indirect. Some binding calls cover weakened binding; strength is not graded here.

B1: membrane palmitoylated protein 2 (MPP2) (protein, UniProt Q9WV34 1-552)
chain: MPVAATNSESAMQQVLDNLGSLPNATGAAELDLIFLRGIMESPIVRSLAKAHERLEETKLEAVRDNNLELVQEILRDLAELAEQSSTAAELARILQEPHFQSLLETHDSVASKTYETPPPSPGLDPTFSNQPVPPDAVRMVGIRKTAGEHLGVTFRVEGGELVIARILHGGMVAQQGLLHVGDIIKEVNGQPVGSDPRALQELLRSASGSVILKILPSYQEPHLPRQVFVKCHFDYDPARDSLSPCKEAGLRFNAGDLLQIVNQDDANWWQACHVEGGSAGLIPSQLLEEKRKAFVKRDLELTPTSGTLCGSLSGKKKKRMMYLTTKNAEFDRHELLIYEEVARMPPFRRKTLVLIGAQGVGRRSLKNKLILWDPDRYGTTVPYTSRRPKDSEREGQGYSFVSRGEMEADIRAGRYLEHGEYEGNLYGTRIDSIRGVVASGKVCVLDVNPQAVKVLRTAEFVPYVVFIEAPDYETLRAMNRAALESGVSTKQLTEADLRRTVEESSRIQRGYGHYFDLSLVNSNLERTFRELQTAMEKLRTEPQWVPVSWVY
As to B1, the binding result is “binds”.
